Source: patent publication US8491897B2, “Treatment of neuropathic pain using anti-thrombospondin antibodies” (The Board of Trustees of the Leland Stanford Junior …, priority 2007, dated 2013)
At least one structure is not confirmed: it was looked up by name or label, or the drawing left a doubt.

System: RGCs
Assay: Inhibition of TSP-, astrocyte/ACM- or Hevin-induced synapse formation in RGC cultures
Type: cell-based, rat
Settings: L-type calcium channel blockers; nifedipine 4 μM, nimodipine 0.5 μM
Description: RGCs were purified by sequential immunopanning to greater than 99.5% purity from P5 Sprague-Dawley rats (Simonsen Labs, Gilroy, Calif.), as previously described (Barres et. al. (1988) Neuron 9, 791). Approximately 30,000 RGCs were cultured per well in 24-well plates (Falcon) on glass (Assistant) or Aclar 22C (Allied Signal) coverslips coated with poly-D-lysine (10 μg/ml) followed by laminin (2 μg/ml). […]
Purified human platelet TSP1 was from either Sigma or Haematologic Technologies with similar results. […] Since purified TSP1 is readily available, we used this as the source of TSP in our experiments unless otherwise stated TSPs were used at a concentration of 5 μg/ml unless otherwise specified. […]
For synapse quantification, cultures were fixed for 7 min in 4% paraformaldehyde (PFA), washed 3× in phosphate buffered saline (PBS) and blocked in 100 μL of blocking buffer (50% Antibody Buffer (0.5% bovine serum albumin, 0.5% Triton X-100, 30 mM NaPO4, 750 mM NaCl, 5% normal goat serum, and 0.4% NaN3, pH 7.4), 50% goat serum (NGS), 0.1% Triton-X) for 30 min. […]
Mounted coverslips were imaged using Nikon Diaphot and Eclipse epifluorescence microscopes (Nikon). Healthy cells that were at least 2 cell diameters from their nearest neighbor were identified and selected at random by eye using DAPI fluorescence. […]

Compound | effect on TSP (SD2)-induced synapse formation
COCCOC(=O)C1=C(C)NC(C)=C(C(=O)OC(C)C)C1c1cccc([N+](=O)[O-])c1 (centres unmarked) [nimodipine] | had no effect on TSP-induced synapse formation
COC(=O)C1=C(C)NC(C)=C(C(=O)OC)C1c1ccccc1[N+](=O)[O-] [nifedipine] | had no effect on TSP-induced synapse formation
